The text below walks through data of publication PMC10967972, “Different Coactivator Recruitment to Human PPARα/δ/γ Ligand-Binding Domains by Eight PPAR Agonists to Treat Nonalcoholic Fatty Liver Disease” (Biomedicines, 2024).

Results are given in words; binding and its absence hold for the method and conditions named. Some results given as binding are weak or reduced against the parent protein; the word gives no strength.

The target of assay [1] is T1, Human PPARδ ligand-binding domain (AAs 170–441) (human) (UniProt Q03181).
T1 sequence: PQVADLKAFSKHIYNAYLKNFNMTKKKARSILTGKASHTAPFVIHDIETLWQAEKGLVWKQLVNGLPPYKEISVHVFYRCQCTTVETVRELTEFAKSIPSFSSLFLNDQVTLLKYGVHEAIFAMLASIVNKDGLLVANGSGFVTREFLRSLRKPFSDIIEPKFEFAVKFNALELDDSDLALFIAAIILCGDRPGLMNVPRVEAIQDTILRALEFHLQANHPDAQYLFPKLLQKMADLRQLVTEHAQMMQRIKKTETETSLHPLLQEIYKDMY
Briefly: FRET or BRET; LANCE Ultra TR-FRET, cell-free, as a1 (Buffer A, 2 h, room temperature); agonist added: saroglitazar, concentration series; response as percent of the full agonist's maximal response; both purified. On the technique in general: In BRET a luciferase serves as donor, and the signal depends on an acceptor being close.

Assay [2] concerns the target T1, Human PPARδ ligand-binding domain (AAs 170–441) (human). The assay is described as follows: FRET or BRET; LANCE Ultra TR-FRET, cell-free, as a1 (Buffer A, 2 h, room temperature); agonist added: pioglitazone, concentration series; response as percent of the full agonist's maximal response; both purified.
For assay [3] the target is unchanged. Briefly: FRET or BRET; LANCE Ultra TR-FRET, cell-free, as a1 (Buffer A, 2 h, room temperature); agonist added: saroglitazar, concentration series; response as percent of the full agonist's maximal response; both purified. This is another data set of the same source.
For assay [4] the target is unchanged. Briefly: condition: only with fenofibric acid as the agonist; FRET or BRET; LANCE Ultra TR-FRET, cell-free, as a1 (Buffer A, 2 h, room temperature); agonist added: fenofibric acid, concentration series; response as percent of the full agonist's maximal response; both purified.

Take EAEEPSLLKKLLLAPANTQ (biotin on the N-terminus) [PGC1α coactivator peptide, biotin-… (AA 137–155)]: the binding result is given as “binds weakly” in assay [1], “no binding (condition: with pioglitazone as the agonist)” in assay [2], “no binding (condition: with saroglitazar as the agonist)” in assay [3] and “no binding” in assay [4].
